Assay results published in patent US20150307625A1 (Bayer, published 2015).
No constants are given. Whether binding was seen depends on the method and setting. Some entries that bind do so weakly or less than the wild type.

Sequences of proteins named here, by UniProt entry; tags and fusion partners are left off. A change or cut given only in a name is not applied to a line headed by its entry.
UniProt P04070: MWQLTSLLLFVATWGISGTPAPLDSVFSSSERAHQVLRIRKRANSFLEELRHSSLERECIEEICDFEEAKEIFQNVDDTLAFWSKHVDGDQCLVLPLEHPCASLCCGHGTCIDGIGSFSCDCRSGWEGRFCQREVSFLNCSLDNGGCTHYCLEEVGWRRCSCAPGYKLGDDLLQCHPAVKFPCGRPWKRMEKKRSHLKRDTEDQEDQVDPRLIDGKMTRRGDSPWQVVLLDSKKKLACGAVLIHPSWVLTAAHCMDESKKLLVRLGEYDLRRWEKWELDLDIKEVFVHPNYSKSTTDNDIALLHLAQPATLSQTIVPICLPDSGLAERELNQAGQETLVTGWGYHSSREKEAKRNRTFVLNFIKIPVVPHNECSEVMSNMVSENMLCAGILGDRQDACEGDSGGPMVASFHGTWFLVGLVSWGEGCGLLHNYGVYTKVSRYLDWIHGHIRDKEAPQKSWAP

Columns and labels:
[1] = molecular target: human activated Protein C (human) (UniProt P04070); test: titration on hAPC, MeanValue against concentration, 4-parameter fit [a]
[2] = molecular target: plasma-derived human aPC-Gla-domain-less (human) (UniProt P04070); test: ELISA
[3] = molecular target: plasma-derived human aPC-Gla-domain-less (human) (UniProt P04070); test: complex formation, gel filtration and SDS-PAGE

Binder | binding [1] | binding [2] | binding [3]
TPP-2309 (antibody, human IgG2, lambda, V domains shown) VH: EVQLLESGGGLVQPGGSLRLSCAASGFTFSSYWMSWVRQAPGKGLEWVSGVSWGGSRTHYADSVKGRFTISRDNSKNTLYLQMNSLRAEDTAVYYCALTGRSGWMRFPNWFDPWGQGTLVTVSS VL: QSVLTQPPSVSGAPGQRVTISCTGSSSNIGAAYDVHWYQQLPGTAPKLLIYGNNKRPSGVPDRFSGSKSGTSASLAITGLQAEDEADYYCQSYDSSLSGSVFGGGTKLTVLG | binds | – | –
T46J23 Fab (Fab, V domains shown, Human Fab (lambda), expressed in E. coli) VH: EVQLLESGGGLVQPGGSLRLSCAASGFTFGNHWMTWVRQAPGKGLEWVSGVSWNGSRTHYADSVKGRFTISRDNSKNTLYLQMNSLRAEDTAVYYCALTGRSGWMRFPNWFDPWGQGTLVTVTS VL: LTQPPSASGTPGQRVTISCTGTSSNIGAGYDVHWYQQLPGTAPKLLIYDNNNRPSGVPDRFSGSKSGTSASLAISGLRSEDEADYYCAAWDDSLNGVVFGGGTKLTVLG | – | binds | –
C25K23 Fab (Fab, V domains shown, Human Fab (lambda) from a phage library, expressed in E. coli; also called Fab C25K23) VH: EVQLLESGGGLVQPGGSLRLSCAASGFTFSSYWMSWVRQAPGKGLEWVSGVSWNGSRTHYADSVKGRFTISRDNSKNTLYLQMNSLRAEDTAVYYCALTGRSGWMRFPNWFDPWGQGTLVTVTS VL: QSVLTQPPSASGTPGQRVTISCTGSSSNIGAAYDVHWYQQLPGTAPKLLIYGNNKRPSGVPDRFSGSKSGTSASLAISGLRSEDEADYYCQSYDSSLSGSVFGGGTKLTVLG | – | binds | binds
Variant 2310 (modified C25K23 IgG) (antibody, V domains shown) VH: EVQLLESGGGLVQPGGSLRLSCAASGFTFSSYWMSWVRQAPGKGLEWVSGVSWQGSRTHYADSVKGRFTISRDNSKNTLYLQMNSLRAEDTAVYYCALTGRSGWMRFPNWFDPWGQGTLVTVSS VL: QSVLTQPPSVSGAPGQRVTISCTGSSSNIGAAYDVHWYQQLPGTAPKLLIYGNNKRPSGVPDRFSGSKSGTSASLAITGLQAEDEADYYCQSYDSSLSGSVFGGGTKLTVLG | binds | – | –
Variant 2312 (modified C25K23 IgG) (antibody, V domains shown) VH: EVQLLESGGGLVQPGGSLRLSCAASGFTFSSYWMSWVRQAPGKGLEWVSGVSWNGARTHYADSVKGRFTISRDNSKNTLYLQMNSLRAEDTAVYYCALTGRSGWMRFPNWFDPWGQGTLVTVSS VL: QSVLTQPPSVSGAPGQRVTISCTGSSSNIGAAYDVHWYQQLPGTAPKLLIYGNNKRPSGVPDRFSGSKSGTSASLAITGLQAEDEADYYCQSYDSSLSGSVFGGGTKLTVLG | binds | – | –
